Some results were stated once for a whole list of compounds, not compound by compound.
Biological target: T1, V600E full-length B-Raf (Homo sapiens, UniProt P15056, V600E)
T1 construct: 1 μM FSBA-MEK and 20 nM V600E full-length B-Raf; made in house; host or cells: Sf9 insect cells (baculovirus)
Assay: B-Raf IC50 assay (incorporation of radio labeled phosphate from [γ-33P]ATP into FSBA-modified wild-type MEK)
Format: biochemical
Conditions: statement in text for Examples 1-24; read-out: IC50 in B-Raf IC50 assay (Example A)
Text: Determining the activity of Raf in the sample is possible by a number of direct and indirect detection methods (US 2004/0082014). Activity of human recombinant B-Raf protein may be assessed in vitro by assay of the incorporation of radio labeled phosphate to recombinant MAP kinase (MEK), a known physiologic substrate of B-Raf, according to US 2004/0127496 and WO 03/022840. The activity/inhibition of V600E full-length B-Raf was estimated by measuring the incorporation of radio labeled phosphate from [γ-^33]ATP into FSBA-modified wild-type MEK (see Example A).
Activity of human recombinant B-Raf protein may be assessed in vitro by assay of the incorporation of radio labeled phosphate to recombinant MAP kinase (MEK), a known physiologic substrate of B-Raf, according to US 2004/0127496 and WO 03/022840. Catalytically active human recombinant B-Raf protein is obtained by purification from sf9 insect cells infected with a human B-Raf recombinant baculovirus expression vector.
The activity/inhibition of V600E full-length B-Raf was estimated by measuring the incorporation of radio labeled phosphate from [γ-^33P]ATP into FSBA-modified wild-type MEK. The 30-μL assay mixtures contained 25 mM Na Pipes, pH 7.2, 100 mM KCl, 10 mM MgCl2, 5 mM β-glycerophosphate, 100 μM Na Vanadate, 4 μM ATP, 500 nCi [γ-^33P]ATP, 1 μM FSBA-MEK and 20 nM V600E full-length B-Raf. Incubations were carried out at 22° C. in a Costar 3365 plate (Corning). Prior to the assay, the B-Raf and FSBA-MEK were preincubated together in assay buffer at 1.5× (20 μL of 30 nM and 1.5 μM, respectively) for 15 minutes, and the assay was initiated by the addition of 10 μL of 10 μM ATP. Following the 60-minute incubation, the assay mixtures were quenched by the addition of 100 μL of 25% TCA, the plate was mixed on a rotary shaker for 1 minute, and the product was captured on a Perkin-Elmer GF/B filter plate using a Tomtec Mach III Harvester. After sealing the bottom of the plate, 35 μL of Bio-Safe II (Research Products International) scintillation cocktail were added to each well and the plate was top-sealed and counted in a Topcount NXT (Packard).

Protein sequences, listed by entry. Tags and fused reporters are not part of them.
UniProt P15056, whole entry V600E: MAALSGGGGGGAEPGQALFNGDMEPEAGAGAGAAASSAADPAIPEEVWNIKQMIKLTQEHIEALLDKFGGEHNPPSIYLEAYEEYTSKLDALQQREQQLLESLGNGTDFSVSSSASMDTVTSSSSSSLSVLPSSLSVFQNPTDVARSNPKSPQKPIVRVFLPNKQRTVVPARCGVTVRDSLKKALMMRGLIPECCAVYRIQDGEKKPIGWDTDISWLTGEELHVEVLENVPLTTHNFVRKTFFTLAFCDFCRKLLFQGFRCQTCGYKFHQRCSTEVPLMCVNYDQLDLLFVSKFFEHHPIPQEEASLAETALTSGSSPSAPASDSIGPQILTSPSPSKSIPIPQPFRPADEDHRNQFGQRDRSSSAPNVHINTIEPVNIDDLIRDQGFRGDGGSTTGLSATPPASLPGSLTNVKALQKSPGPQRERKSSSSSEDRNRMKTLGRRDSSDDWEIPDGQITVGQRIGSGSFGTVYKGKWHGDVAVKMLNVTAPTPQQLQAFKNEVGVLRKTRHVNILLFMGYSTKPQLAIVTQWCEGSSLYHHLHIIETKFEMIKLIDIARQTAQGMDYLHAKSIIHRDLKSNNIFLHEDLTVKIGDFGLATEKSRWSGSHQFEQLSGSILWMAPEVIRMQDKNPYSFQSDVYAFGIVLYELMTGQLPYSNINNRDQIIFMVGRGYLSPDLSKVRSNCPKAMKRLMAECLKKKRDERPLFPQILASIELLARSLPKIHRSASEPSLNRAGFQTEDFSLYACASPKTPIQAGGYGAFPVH

## CCCS(=O)(=O)Nc1ccc(F)c(NC(=O)Nc2cc(NCC)ncn2)c1F [Example 1, Propane-1-sulfonic acid {3-[3-(6-ethylamino-pyrimidin-4-yl)-ureido]-2,4-difluoro-phenyl}-amide]
  IC50: < 1.5 µM

## CCCS(=O)(=O)Nc1ccc(F)c(NC(=O)Nc2cc(NC(C)C)ncn2)c1F [Example 4, N-(2,4-difluoro-3-(3-(6-(isopropylamino)pyrimidin-4-yl)ureido)phenyl)propane-1-sulfonamide]
  IC50: < 1.5 µM

## CCCS(=O)(=O)Nc1ccc(F)c(NC(=O)Nc2cc(NCCN3CCOCC3)ncn2)c1F [Example 6, N-(2,4-difluoro-3-(3-(6-(2-morpholinoethylamino)pyrimidin-4-yl)ureido)phenyl)propane-1-sulfonamide]
  IC50: < 1.5 µM

## CCCS(=O)(=O)Nc1ccc(F)c(NC(=O)Nc2ccncn2)c1F [Example 7, Propane-1-sulfonic acid [2,4-difluoro-3-(3-pyrimidin-4-yl-ureido)-phenyl]-amide]
  IC50: < 1.5 µM

## CCCS(=O)(=O)Nc1ccc(F)c(NC(=O)Nc2cc(NC)ncn2)c1Cl [Example 8, Propane-1-sulfonic acid {2-chloro-4-fluoro-3-[3-(6-methylamino-pyrimidin-4-yl)-ureido]-phenyl}-amide]
  IC50: < 1.5 µM

## CCCS(=O)(=O)Nc1ccc(Cl)c(NC(=O)Nc2cc(NC)ncn2)c1F [Example 9, N-4-Chloro-2-fluoro-3-(3-((6-(methylamino)pyrimidin-4-yl)ureido)phenyl)propane-1-sulfonamide]
  IC50: < 1.5 µM

## CCCS(=O)(=O)Nc1ccc(Cl)c(NC(=O)Nc2cc(NCc3ccccc3)ncn2)c1F [Example 10, N-(3-(3-(6-(Benzylamino)pyrimidin-4-yl)ureido)-4-chloro-2-fluorophenyl)propane-1-sulfonamide]
  IC50: < 1.5 µM

## CCCS(=O)(=O)Nc1ccc(F)c(NC(=O)N(C)c2ccncn2)c1F [Example 11, Propane-1-sulfonic acid [2,4-difluoro-3-(3-methyl-3-pyrimidin-4-yl-ureido)-phenyl]-amide]
  IC50: < 1.5 µM

## CCCS(=O)(=O)Nc1ccc(F)c(NC(=O)N(C)c2cc(Nc3ccn(C)n3)ncn2)c1F [Example 12, Propane-1-sulfonic acid (2,4-difluoro-3-{3-methyl-3-[6-(1-methyl-1H-pyrazol-3-ylamino)-pyrimidin-4-yl]-ureido}-phenyl)-amide]
  IC50: < 1.5 µM

## CCCS(=O)(=O)Nc1ccc(F)c(NC(=O)N(C)c2cc(NC3CC3)ncn2)c1F [Example 13, N-(3-(3-(6-(cyclopropylamino)pyrimidin-4-yl)-3-methylureido)-2,4-difluorophenyl)propane-1-sulfonamide]
  IC50: < 1.5 µM

## CCCS(=O)(=O)Nc1ccc(F)c(NC(=O)N(C)c2cc(NCC)ncn2)c1F [Example 14, N-(3-(3-(6-(ethylamino)pyrimidin-4-yl)-3-methylureido)-2,4-difluorophenyl)propane-1-sulfonamide]
  IC50: < 1.5 µM

## CCCS(=O)(=O)Nc1ccc(F)c(NC(=O)N(C)c2cc(NCCO)ncn2)c1F [Example 16, N-(2,4-difluoro-3-(3-(6-(2-hydroxyethylamino)pyrimidin-4-yl)-3-methylureido)phenyl) propane-1-sulfonamide]
  IC50: < 1.5 µM

## CCCS(=O)(=O)Nc1ccc(F)c(NC(=O)N(C)c2cc(NC)ncn2)c1F [Example 17, N-(2,4-difluoro-3-(3-methyl-3-(6-(methylamino)pyrimidin-4-yl)ureido)phenyl)propane-1-sulfonamide]
  IC50: < 1.5 µM

## CCCS(=O)(=O)Nc1ccc(F)c(NC(=O)N(C)c2cc(NC3CCC3)ncn2)c1F [Example 18, N-(3-(3-(6-(cyclobutylamino)pyrimidin-4-yl)-3-methylureido)-2,4-difluorophenyl)propane-1-sulfonamide]
  IC50: < 1.5 µM

## CCCS(=O)(=O)Nc1ccc(F)c(NC(=O)N(C)c2cc(NC3CCOC3)ncn2)c1F (centres unmarked) [Example 19, N-(2,4-difluoro-3-(3-methyl-3-(6-(tetrahydrofuran-3-ylamino)pyrimidin-4-yl)ureido)phenyl)propane-1-sulfonamide]
  IC50: < 1.5 µM

## CCCS(=O)(=O)Nc1ccc(F)c(NC(=O)N(C)c2cc(NN)ncn2)c1F [Example 20, N-(2,4-difluoro-3-(3-(6-hydrazinylpyrimidin-4-yl)-3-methylureido)phenyl) propane-1-sulfonamide]
  IC50: < 1.5 µM

## CCCS(=O)(=O)Nc1ccc(F)c(NC(=O)N(C)c2cc(NC(C)C)ncn2)c1F [Example 21, N-(2,4-difluoro-3-(3-(6-(isopropylamino)pyrimidin-4-yl)-3-methylureido)phenyl) propane-1-sulfonamide]
  IC50: < 1.5 µM

## CCCS(=O)(=O)Nc1ccc(F)c(NC(=O)N(C)c2cc(NCCN3CCOCC3)ncn2)c1F [Example 22, N-(2,4-difluoro-3-(3-methyl-3-(6-(2 morpholinoethylamino)pyrimidin-4-yl)ureido)phenyl)propane-1-sulfonamide]
  IC50: < 1.5 µM

## CCCS(=O)(=O)Nc1ccc(F)c(NC(=O)Nc2ncnc(Nc3ccc(F)cc3)n2)c1F [Example 23, N-(2,4-Difluoro-3-(3-(4-(4-fluorophenylamino)-1,3,5-triazin-2-yl)ureido)phenyl)propane-1-sulfonamide]
  IC50: < 1.5 µM

## CCCS(=O)(=O)Nc1ccc(F)c(NC(=O)Nc2ncncn2)c1F [Example 24, N-(3-(3-1,3,5-Triazin-2-ylureido)-2,4-difluorophenyl)propane-1-sulfonamide]
  IC50: < 1.5 µM

From US20120214811A1, “RAF INHIBITOR COMPOUNDS AND METHODS OF USE THEREOF” (priority 2009, published 2012)
